Reference: publication PMC8124269 (Molecules, 2021)

How the values were obtained:
in vitro = settings: African green monkey
MDCK and A549 cells = settings: cited from earlier work

COc1ccc2cc([C@H](C)C(=O)O)ccc2c1 [Naproxen, naproxen]
CC50 (in vitro): > 1 mM
CC50 (MDCK and A549 cells): 1.6 ± 0.3 mM
